These are yes or no findings as the source states them, for the method shown. Sequences can lack the tags named with a protein.
Biological target: YFPC, the fragment containing amino acid residues 155-238 of YFP (empty vector)
Assay: BiFC in tobacco leaf epidermal cells (ETG1-YFPN and YFPC)

- binding: no binding
B1: ETG1:YFPN fusion protein (other, UniProt Q501D5 1-589, looked up)
chain: MGGPAYDCLTNPLGAVRFSFVNALSSGYDPASSVGKDWGVVDLFRHYFSDESAISQVPILDSSSIKWVQPKTLVRFRGMIQDMLGNEFYAGAYKDDSTWRTNKYSDVSQFPEGSSTEIQVWERRLLYCVPVPGKNQWTECSSQELKNRFLDLTGQNREKRVRVDEEMTDSMDSSTLEAGRNGSPFKKMKVGEATSSASESQVPQTSGIPPATSADSLPCLVKIYDSPESDLKLNDVVEFLGVLTFDPIVMMDTDTLDENSDALSEAESVQMPSGKVPRLHCLIHRKLETQHFLHGSSLLPEPKSPQIFKEIRESLMKYLTGLLGNDHIAAQFLLLHLLSKVHGRVDNVAVGKLSLNLIHLNKESMSIFGTQLSGALKSLLPFTQSIPLTIEYLNTASFGPKKDYGINRLMPGVLQIADGTHLILDETELQPGTLNSVGVENANLLKNLLECQKVEYDFQYYKMEMATDVQMLIFSEGKSNIMPADLVLPLQPSQVNSLEVITPETAETWRCYLATCKSLSHSIGQELQQVVENDLVAARQTDRSLGSQDLSRLLTMARMMSVSYGETTLSLEHWQMVLELERLRKERLK
notes: range 1-589;range 1-154; BiFC construct expressed in tobacco leaf epidermal cells; not shown: YFPN: fragment with amino acid residues 1-154 of YFP (plasmid pUC-SPYNE)
